Experimental data taken from patent US8957098B2 (ALGIAX Pharmaceuticals GmbH, priority 2010, dated 2015).
For at least one compound, name, drawing or mass did not settle the structure.

Assays:
[1] = tested on: severe spinal cord contusion injury in the rat; assay: BBB open field locomotor rating scale after severe spinal cord contusion injury; format: in vivo
[2] = tested on: severe spinal cord contusion injury in the rat; assay: Explorative rearing test after severe spinal cord contusion injury; format: in vivo; conditions: 20 mg/kg/day by gavage for 7 days
Experimental: Thirteen week-old female Lewis rats (Charles River, Sulzfeld Germany) were housed under a 12:12 h dark/light regime and allowed free access to water and food. After one week of habituation the animals underwent general anesthesia with a mixture of isoflurane and air (induction: 5% isoflurane, maintenance: 2.2% isofluorane). A Th10 laminectomy was performed without rupturing the dura and a severe contusive SCI (25 gem NYU/MASCIS II impactor) {Gruner, 1992 #3} was induced. After suturing muscle and skin, a subcutaneous (s.c.) injection of 5 ml of Ringers Lactate was given. Bladders were emptied manually 2 times a day until spontaneous voiding returned (usually within 1 week). The lesion severity was verified by the impact velocity and contusion depth of the impactor rod. Animals with an impact velocity error >5% were excluded from further analysis. After injury, individual rats were randomly assigned into a treatment group. The following groups were used:
When placed in a Plexiglas cylinder (18 cm diameter×35.0 cm height), animals spontaneously rear and contact the walls with their forepaws. Numbers, duration and types of rears were analyzed during the 3-min recorded observation period in the cylinder (Himes et al., 2006; Shumsky et al., 2003). A mirror was placed at an angle behind the cylinder so that the forelimbs could be viewed at all times. The testing session was videotaped, and rearing behaviour was scored blindly at a later date.
Different types of rears of increasing heights were observed: • LEVEL 1: Crouch—Animals lifted both forepaws off the ground up to 10 cm; • LEVEL 2: Rear—Animals reared and extended the trunk with the hindlimbs flexed reaching a height between 10 and 15 cm; • LEVEL 3: Stand—Animals reared and extended the trunk with the hindlimbs extended reaching a height over 15 cm.
Occasionally an animal progressed through several types of rears before touching down, in which case the time the animal spend in each rearing height was measured by counting the single video frames. In the Explorative rearing test, the shown parameter presents the average time each animal spends at the different rearing levels. Most animals don't have any problem with exploring the LEVEL 1 rearing height, because they all spend a similar amount of time at this LEVEL. Physically more demanding is the LEVEL 2 rearing height between 10 to 15 cm, here most of the treatment effects were observed. Treated animals tend to spend more exploration time at this level when compared to vehicle controls. This cannot be explained by a lack of exploration or curiosity because there is no difference in the number of rearing attempts between treated animals and vehicle controls. The biggest challenge is to explore LEVEL 3 which is >15 cm. At this LEVEL the functional impairment as a consequence of the SCI becomes most obvious. With or without treatment the animals are barely able to explore this LEVEL, whereas for the healthy control animals this is not a problem.

Row | SMILES | BBB score at end of experiment vs vehicle controls ([1]; Example 2, 20 mg/kg/day by gavage for 7 days, DPO 63, Mann-Whitney U Test p=0.006) | BBB score vs vehicle treated animals ([1]; Example 3, 20 mg/kg/day by gavage for 7 days, DPO 56, one-way ANOVA p<0.05) | BBB score vs vehicle treated animals at end of experiment ([1]; Example 3, 20 mg/kg/day by gavage for 7 days, DPO 63, one-way ANOVA p<0.05) | BBB score vs vehicle control animals ([1]; Example 5, 10 mg/kg/day by gavage for 7 days, DPO42, one-way ANOVA p<0.01) | difference in BBBscore vs vehicle controls ([1]; Example 5, 10 mg/kg/day by gavage for 7 days, from DPO42 to end of experiment (DPO 63), one-way ANOVA p<0.01) | BBB score vs vehicle control animals ([1]; Example 5, 30 mg/kg/day by gavage for 7 days, throughout the entire experiment) | exploring time at LEVEL 2 compared with healthy control animals ([2]; Example 2) | exploring time of healthy control animals at LEVEL 3 (>15 cm) compared with treated animals ([2]; Example 2) | rearing attempts (time and height reached by forepaws) vs vehicle control animals ([2]; Example 2) | performance at LEVEL 2 compared with healthy controls ([2]; Example 3) | rearing attempts (time and height reached by forepaws) vs vehicle control animals ([2]; Example 3) | BBB score vs vehicle control animals ([1]; Example 4, 3 mg/kg/day by gavage for 7 days, throughout the entire experiment) | BBB score vs vehicle control animals ([1]; Example 4, 10 mg/kg/day by gavage for 7 days, DPO 49, one-way ANOVA p<0.05) | BBB score vs vehicle control animals at end of experiment ([1]; Example 4, 10 mg/kg/day by gavage for 7 days, DPO 63, one-way ANOVA p<0.05)
1 | Cc1cc(NC(=O)/C(C#N)=C(\O)C2CC2)ccc1C(F)(F)F [HR325, 1(3-methyl-4-trifluoromethylphenyl-carbamoyl)-2-cyclopropyl-2oxo-propionitrile] | performed significantly better | performed significantly better | significant differences in BBBscore were still observed | performed significantly better | remained till the end of the experiment | performed comparable to the vehicle control animals | equal amount of exploring time | significantly longer | longer in time and that the forepaws reached higher | performed not significantly different from the healthy controls | longer in time and that the forepaws reached much higher | – | – | –
2 | C/C(O)=C(\C#N)C(=O)Nc1ccc(C(F)(F)F)cc1 [teriflunomide, N-(4-trifluoromethyl)-phenyl-2-cyano-3-hydroxy-crotonic acidamide] | – | – | – | – | – | – | – | – | – | – | – | performed comparable to the vehicle control animals | performed significantly better | significant differences in the BBBscore were still observed
